Data from patent US20120149881A1.
These are yes or no findings as the source states them, for the method shown. Some binding calls cover weakened binding; strength is not graded here. One block for each binder: values may come before it.

Tests used:
[1] = target: human IgE CH3-CH4-M1′/Fc fusion protein (human); assay: surface plasmon resonance (Table 1)
M1' peptide 13 = target: T1, M1' peptide 13; assay: ELISA on coated antigen, relative OD450/650
T1 sequence (peptide): PPELDVCVEEAEGEA

M1' peptide 3 = target: T2, M1' peptide 3; assay: ELISA on coated antigen, relative OD450/650
T2 sequence (peptide): GLAGGSAQSQRAPDR

M1′ peptide 5 (human) = target: T3, M1′ peptide 5 (human); assay: ELISA on coated antigen, relative OD450/650
T3 sequence (peptide): RAPDRVLCHSGQQQG

M1′ peptide 7 (human) = target: T4, M1′ peptide 7 (human); assay: ELISA on coated antigen, relative OD450/650
T4 sequence (peptide): GQQQGLPRAAGGSVP

M1' peptide 11 = target: T5, M1' peptide 11; assay: ELISA on coated antigen, relative OD450/650
T5 sequence (peptide): CGAGRADWPGPPELD

M1' peptide 12 = target: T6, M1' peptide 12; assay: ELISA on coated antigen, relative OD450/650
T6 sequence (peptide): ADWPGPPELDVCVEE

M1' peptide 14 = target: T7, M1' peptide 14; assay: ELISA on coated antigen, relative OD450/650
T7 sequence (peptide): VCVEEAEGEAPWTWT

M1' peptide 6 = target: T8, M1' peptide 6; assay: ELISA on coated antigen, relative OD450/650
T8 sequence (peptide): VLCHSGQQQGLPRAA

M1' peptide 9 = target: T9, M1' peptide 9; assay: ELISA on coated antigen, relative OD450/650
T9 sequence (peptide): GGSVPHPRCHCGAGR

M1' peptide 1 = target: T10, M1' peptide 1; assay: ELISA on coated antigen, relative OD450/650
T10 sequence (peptide): ASPSQTVQRAVSVNP

M1' peptide 15 = target: T11, M1' peptide 15; assay: ELISA on coated antigen, relative OD450/650
T11 sequence (peptide): AEGEAPWTWTGLCIF

[2] = target: human IgE CH3-CH4-M1′/Fc fusion protein (human); assay: ELISA on coated antigen, relative OD450/650
M1' peptide 10 = target: T12, M1' peptide 10; assay: ELISA on coated antigen, relative OD450/650
T12 sequence (peptide): HPRCHCGAGRADWPG

M1′ peptide 8 (human) = target: T13, M1′ peptide 8 (human); assay: ELISA on coated antigen, relative OD450/650
T13 sequence (peptide): PRAAGGSVPHPRCH

M1' peptide 2 = target: T14, M1' peptide 2; assay: ELISA on coated antigen, relative OD450/650
T14 sequence (peptide): TVQRAVSVNPGLAGG

M1′ peptide 4 (human) = target: T15, M1′ peptide 4 (human); assay: ELISA on coated antigen, relative OD450/650
T15 sequence (peptide): SAQSQRAPDRVLCHS

binding [1]: binds
B1: humanized anti-IgE/M1′ antibody 47H4.v1 (antibody, V domains shown)
VH: EVQLVESGGGLVQPGGSLRLSCAASGFTFSDYGMAWVRQAPGKGLEWVAFISDLAYTIYYADTVTGRFTISRDNSKNTLYLQMNSLRAEDTAVYYCARDNWDAMDYWGQGTLVTVSS
VL: DIQMTQSPSSLSASVGDRVTITCRSSQSLVHNNGNTYLHWYQQKPGKAPKLLIYKVSNRFSGVPSRFSGSGSGTDFTLTISSLQPEDFATYYCSQNTLVPWTFGQGTKVEIKR

binding [1]: binds
B2: humanized anti-IgE/M1′ antibody 7A6.v1 (antibody, V domains shown)
VH: EVQLVESGGGLVQPGGSLRLSCAASGYTFIDYEMHWVRQAPGKGLEWVGAIDPETGTTAYNQKFKGRFTISADTSKNTAYLQMNSLRAEDTAVYYCTRLRPHYDYDNAMDSWGQGTLVTVSS
VL: DIQMTQSPSSLSASVGDRVTITCKSSQTLLYSTNQKNYLAWYQQKPGKAPKLLIYWASTRESGVPSRFSGSGSGTDFTLTISSLQPEDFATYYCQQYYSYPYTFGQGTKVEIKR

binding (M1' peptide 13): no binding | binding (M1' peptide 3): no binding | binding (M1′ peptide 5 (human)): no binding | binding (M1′ peptide 7 (human)): no binding | binding (M1' peptide 11): no binding | binding (M1' peptide 12): no binding | binding (M1' peptide 14): no binding | binding (M1' peptide 6): no binding | binding (M1' peptide 9): no binding | binding (M1' peptide 1): no binding | binding (M1' peptide 15): no binding | binding [2]: binds | binding (M1' peptide 10): no binding | binding (M1′ peptide 8 (human)): no binding | binding (M1' peptide 2): no binding
B3: murine anti-IgE/M1′ antibody 47H4 (antibody, V domains shown)
VH: EVKLVESGGGLVQPGGSRKLSCAASGFTFSDYGMAWVRQAPGKGPEWVAFISDLAYTIYYADTVTGRFTISRENAKNTLYLEMSSLRSEDTALYYCARDNWDAMDYWGQGTSVTVSS
VL: DIVLTQTPLSLPVSLGDQASISCRSSQSLVHNNGNTYLHWYLQKPGQSPKLLIYKVSNRFSGVPDRFSGSGSGTDFTLKISRLEAEDLGVYFCSQNTLVPWTFGGGTKVEIKR

binding (M1' peptide 13): no binding | binding (M1' peptide 3): no binding | binding (M1′ peptide 7 (human)): no binding | binding (M1' peptide 11): no binding | binding (M1' peptide 12): no binding | binding (M1' peptide 14): no binding | binding (M1' peptide 6): no binding | binding (M1' peptide 9): no binding | binding (M1' peptide 1): no binding | binding (M1' peptide 15): no binding | binding [2]: binds | binding (M1' peptide 10): no binding | binding (M1′ peptide 8 (human)): no binding | binding (M1' peptide 2): no binding
B4: murine anti-IgE/M1′ antibody 7A6 (antibody, V domains shown)
VH: QVQLQQSGAELVRPGASVTLSCKASGYTFIDYEMHWVKQTPVHGLEWIGAIDPETGTTAYNQKFKGKATLTAAKSSSTAYMELRSLTSEDSAVYYCTRLRPHYDYDNAMDSWGQGTTLTVSS
VL: DIVMSQSPSSLTVSVGEKVTLSCKSSQTLLYSTNQKNYLAWYQQKPGQSPKLLIYWASTRESGVPDRFTGSGSGTDFTLTISSVKAEDLAVYYCQQYYSYPYTFGGGTKVEIKR

binding (M1' peptide 13): no binding | binding (M1' peptide 3): no binding | binding (M1′ peptide 5 (human)): no binding | binding (M1' peptide 11): no binding | binding (M1' peptide 14): no binding | binding (M1' peptide 6): no binding | binding (M1' peptide 9): no binding | binding (M1' peptide 1): no binding | binding (M1′ peptide 4 (human)): no binding | binding (M1' peptide 15): no binding | binding [2]: binds | binding (M1' peptide 10): no binding | binding (M1' peptide 2): no binding
B5: murine anti-IgE/M1′ antibody 26A11 (antibody, V domains shown)
VH: EVQLQQSGPELVKPGASVKMSCKASGYTFTDYYMMWVKQSHGKSLEWIGDINPNNYDTSYNQKFKGKATLTVDKSSSTAYIQLNSLTSEDSAVYYCASKAYWGQGTLVTVSA
VL: DIQMTQTTSSLSASLGDRVTITCRSSQDISNSLNWYQQKPDGPVKLLIYSTSRLHSGVPSRFSGSGSGTDYSLTISNLEQEDLATYFCQQGHTLPWTFGGGTKVEIKR

binding [1]: binds
B6: humanized anti-IgE/M1′ antibody 26A11.v1 (antibody, V domains shown)
VH: EVQLVESGGGLVQPGGSLRLSCAASGYTFTDYYMMWVRQAPGKGLEWVGDINPNNYDTSYNQKFKGRFTISADTSKNTAYLQMNSLRAEDTAVYYCASKAYWGQGTLVTVSS
VL: DIQMTQSPSSLSASVGDRVTITCRSSQDISNSLNWYQQKPGKAPKLLIYSTSRLHSGVPSRFSGSGSGTDFTLTISSLQPEDFATYYCQQGHTLPWTFGQGTKVEIKR
